Measurements reported in publication PMC10349017.
No constants are given. Whether binding was seen depends on the method and setting. In cells and extracts the contact can be indirect. Some binding calls cover weakened binding; strength is not graded here.

Chains of the proteins cited; added tags and fusions are not shown.
UniProt Q9HC29: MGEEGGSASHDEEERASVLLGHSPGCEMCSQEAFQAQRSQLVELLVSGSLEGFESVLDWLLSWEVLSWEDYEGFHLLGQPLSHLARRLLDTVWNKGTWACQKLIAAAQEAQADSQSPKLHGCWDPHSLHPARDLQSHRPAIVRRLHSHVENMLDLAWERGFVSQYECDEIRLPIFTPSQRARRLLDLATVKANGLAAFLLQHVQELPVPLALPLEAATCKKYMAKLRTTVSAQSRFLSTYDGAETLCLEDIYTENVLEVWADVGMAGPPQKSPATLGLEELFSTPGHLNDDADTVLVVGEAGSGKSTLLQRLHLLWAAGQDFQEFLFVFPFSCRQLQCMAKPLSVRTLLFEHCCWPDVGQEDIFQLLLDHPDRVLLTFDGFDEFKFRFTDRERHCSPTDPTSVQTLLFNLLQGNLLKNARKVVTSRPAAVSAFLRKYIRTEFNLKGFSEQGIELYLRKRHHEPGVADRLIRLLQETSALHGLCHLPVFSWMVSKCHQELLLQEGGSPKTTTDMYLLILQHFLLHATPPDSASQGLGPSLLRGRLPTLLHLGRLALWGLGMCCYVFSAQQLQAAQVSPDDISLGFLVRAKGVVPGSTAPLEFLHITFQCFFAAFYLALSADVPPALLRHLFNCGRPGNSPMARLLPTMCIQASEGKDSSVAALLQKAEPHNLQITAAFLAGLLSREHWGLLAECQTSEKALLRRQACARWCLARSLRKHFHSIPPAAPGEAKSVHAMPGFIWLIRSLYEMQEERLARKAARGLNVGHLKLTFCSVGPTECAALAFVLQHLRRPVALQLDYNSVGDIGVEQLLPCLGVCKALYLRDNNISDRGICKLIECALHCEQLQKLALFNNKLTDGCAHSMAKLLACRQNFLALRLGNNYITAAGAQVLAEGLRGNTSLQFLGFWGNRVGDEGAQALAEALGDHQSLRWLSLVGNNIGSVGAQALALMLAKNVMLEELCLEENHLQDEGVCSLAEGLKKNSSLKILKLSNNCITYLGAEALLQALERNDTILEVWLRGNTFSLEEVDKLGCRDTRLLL

Target: Nucleotide-binding oligomerization domain-containing protein 2 (human (endogenous in A549)) (UniProt Q9HC29)
Test: co-IP; A549 cell lysate (RIPA buffer), pre-incubated with protein A agarose beads at 4 °C for 4 h; antibodies against CCN4 or Nod2, or IgG as control, with protein A agarose overnight at 4 °C; immunoblot

binding: binds
B1: Cellular Communication Network Factor 4 (protein, UniProt O95388 23-367)
chain: TALSPAPTTMDFTPAPLEDTSSRPQFCKWPCECPPSPPRCPLGVSLITDGCECCKMCAQQLGDNCTEAAICDPHRGLYCDYSGDRPRYAIGVCAQVVGVGCVLDGVRYNNGQSFQPNCKYNCTCIDGAVGCTPLCLRVRPPRLWCPHPRRVSIPGHCCEQWVCEDDAKRPRKTAPRDTGAFDAVGEVEAWHRNCIAYTSPWSPCSTSCGLGVSTRISNVNAQCWPEQESRLCNLRPCDVDIHTLIKAGKKCLAVYQPEASMNFTLAGCISTRSYQPKYCGVCMDNRCCIPYKSKTIDVSFQCPDGLGFSRQVLWINACFCNLSCRNPNDIFADLESYPDFSEIAN
